Assay results: patent US20140121167A1
Results are given in words; binding and its absence hold for the method and conditions named. In cells and extracts the contact can be indirect. Some entries that bind do so weakly or less than the wild type.

By UniProt entry, the sequences of proteins in these tests, tags left out. Where a name states a change or a piece, a line headed by the entry shows the natural chain unless it says otherwise. Chains listed by the source or under a name are the forms on record and can include a tag or linker.
GFP-P1 (P42858, form named): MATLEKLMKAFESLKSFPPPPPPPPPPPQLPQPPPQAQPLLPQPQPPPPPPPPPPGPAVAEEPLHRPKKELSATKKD

Molecular target: GFP-P1 (human) (UniProt P42858)
Test: co-immunoprecipitation from cotransfected HeLa cells (anti-GFP on protein G/A-agarose, anti-cherry western blot)

B1: Cherry-pep42 (peptide, not shown: small tags and cut ends)
chain: AASSGVSTPGSAGHDIITEQPRS
  binding: binds
